Data on one molecule can be found in article PMC12118722, “Self-assembled peptide-dye nanostructures for in vivo tumor imaging and photodynamic toxicity” (npj Imaging, 2024).

Amino acid sequences for entries named in this document (tags omitted). A change or cut given only in a name is not applied to a line headed by its entry.
UniProt P06756: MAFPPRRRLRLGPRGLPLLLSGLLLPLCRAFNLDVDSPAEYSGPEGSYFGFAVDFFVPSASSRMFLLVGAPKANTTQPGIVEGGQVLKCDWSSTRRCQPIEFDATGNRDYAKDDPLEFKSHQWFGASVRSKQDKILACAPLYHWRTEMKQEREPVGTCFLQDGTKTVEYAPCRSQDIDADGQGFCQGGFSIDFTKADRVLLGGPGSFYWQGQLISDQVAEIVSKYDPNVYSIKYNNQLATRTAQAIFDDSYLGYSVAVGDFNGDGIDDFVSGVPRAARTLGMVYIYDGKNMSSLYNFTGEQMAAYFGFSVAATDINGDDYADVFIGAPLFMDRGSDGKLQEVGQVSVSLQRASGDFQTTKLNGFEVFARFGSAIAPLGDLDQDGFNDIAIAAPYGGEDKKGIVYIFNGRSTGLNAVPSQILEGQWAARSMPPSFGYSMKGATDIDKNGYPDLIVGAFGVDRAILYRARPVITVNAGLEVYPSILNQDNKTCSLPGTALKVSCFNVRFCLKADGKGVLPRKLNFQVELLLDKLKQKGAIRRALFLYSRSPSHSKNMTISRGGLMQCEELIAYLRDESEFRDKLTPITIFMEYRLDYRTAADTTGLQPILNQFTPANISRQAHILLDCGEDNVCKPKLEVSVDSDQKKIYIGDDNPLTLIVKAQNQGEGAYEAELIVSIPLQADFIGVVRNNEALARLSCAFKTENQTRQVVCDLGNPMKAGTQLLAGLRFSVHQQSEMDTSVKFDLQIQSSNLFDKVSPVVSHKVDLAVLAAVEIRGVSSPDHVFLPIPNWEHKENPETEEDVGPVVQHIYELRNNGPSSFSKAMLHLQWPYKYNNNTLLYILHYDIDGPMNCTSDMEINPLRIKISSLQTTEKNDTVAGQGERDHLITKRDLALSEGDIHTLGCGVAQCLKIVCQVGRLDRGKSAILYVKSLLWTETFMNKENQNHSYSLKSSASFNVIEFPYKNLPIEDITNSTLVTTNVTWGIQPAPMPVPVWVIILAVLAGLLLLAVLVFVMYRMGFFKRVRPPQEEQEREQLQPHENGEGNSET
UniProt P18084: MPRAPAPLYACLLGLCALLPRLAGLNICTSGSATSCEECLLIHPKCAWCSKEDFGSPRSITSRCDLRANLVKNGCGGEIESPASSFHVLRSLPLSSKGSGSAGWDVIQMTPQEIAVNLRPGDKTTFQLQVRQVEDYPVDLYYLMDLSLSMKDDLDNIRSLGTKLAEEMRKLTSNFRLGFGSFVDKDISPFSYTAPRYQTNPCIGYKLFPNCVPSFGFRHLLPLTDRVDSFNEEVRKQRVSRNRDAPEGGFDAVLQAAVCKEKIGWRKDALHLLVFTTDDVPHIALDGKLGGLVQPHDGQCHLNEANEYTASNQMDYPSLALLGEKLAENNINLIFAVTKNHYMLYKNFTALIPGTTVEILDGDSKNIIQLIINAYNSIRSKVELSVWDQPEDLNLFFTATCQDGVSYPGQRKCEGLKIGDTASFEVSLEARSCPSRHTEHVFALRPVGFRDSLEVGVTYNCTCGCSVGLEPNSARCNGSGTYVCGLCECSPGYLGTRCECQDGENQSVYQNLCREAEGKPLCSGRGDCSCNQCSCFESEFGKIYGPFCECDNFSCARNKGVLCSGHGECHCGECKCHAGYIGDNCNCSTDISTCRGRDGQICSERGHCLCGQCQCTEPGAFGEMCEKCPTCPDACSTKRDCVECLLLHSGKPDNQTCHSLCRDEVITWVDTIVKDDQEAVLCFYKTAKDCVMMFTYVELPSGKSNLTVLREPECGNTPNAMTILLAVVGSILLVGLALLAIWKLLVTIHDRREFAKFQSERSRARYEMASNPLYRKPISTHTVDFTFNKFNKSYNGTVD

These are yes or no findings as the source states them, for the method shown. Some binding calls cover weakened binding; strength is not graded here.

In this assay the target is αVβ5 integrin (human (endogenous in SKOV-3)) (UniProt P06756+P18084). Briefly: flow cytometry on cells; competitive inhibition: SKOV-3 cells seeded overnight, treated or not with αVβ5 mAbs (20 µg/µL) for 90 min, then with iRGD-BNPs or iRGD-SNPs; methylene blue fluorescence of the cells read in the APC channel; only the binder purified. (In general: A flow cytometer gives signals particle by particle.)

Consider CRGDKGPDCDD [iRGD-DD], for which the binding result was “binds”.
